{"sequences": {"note": "The chains behind the UniProt entries cited, without tags or fusion partners. Where a name states a change or a piece, a line headed by the entry shows the natural chain unless it says otherwise.", "UniProt Q92519": "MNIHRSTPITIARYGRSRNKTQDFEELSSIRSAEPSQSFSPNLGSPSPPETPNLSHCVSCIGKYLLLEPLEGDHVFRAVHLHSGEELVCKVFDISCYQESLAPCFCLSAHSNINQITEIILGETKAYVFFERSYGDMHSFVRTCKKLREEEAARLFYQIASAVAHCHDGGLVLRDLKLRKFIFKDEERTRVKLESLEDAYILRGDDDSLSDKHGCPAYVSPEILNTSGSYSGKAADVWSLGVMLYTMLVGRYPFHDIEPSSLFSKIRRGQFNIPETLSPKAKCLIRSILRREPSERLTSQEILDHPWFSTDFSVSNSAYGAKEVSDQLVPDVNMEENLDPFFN"}, "source": "patent US12721838B2", "about": "(Henry Ford Health System, priority 2020, dated 2026)", "target": "T1, Trib2-Luciferase (Luc-Trib2) fusion (Homo sapiens, UniProt Q92519)", "T1 sequence (Q92519 with tags, fused parts or gaps)": "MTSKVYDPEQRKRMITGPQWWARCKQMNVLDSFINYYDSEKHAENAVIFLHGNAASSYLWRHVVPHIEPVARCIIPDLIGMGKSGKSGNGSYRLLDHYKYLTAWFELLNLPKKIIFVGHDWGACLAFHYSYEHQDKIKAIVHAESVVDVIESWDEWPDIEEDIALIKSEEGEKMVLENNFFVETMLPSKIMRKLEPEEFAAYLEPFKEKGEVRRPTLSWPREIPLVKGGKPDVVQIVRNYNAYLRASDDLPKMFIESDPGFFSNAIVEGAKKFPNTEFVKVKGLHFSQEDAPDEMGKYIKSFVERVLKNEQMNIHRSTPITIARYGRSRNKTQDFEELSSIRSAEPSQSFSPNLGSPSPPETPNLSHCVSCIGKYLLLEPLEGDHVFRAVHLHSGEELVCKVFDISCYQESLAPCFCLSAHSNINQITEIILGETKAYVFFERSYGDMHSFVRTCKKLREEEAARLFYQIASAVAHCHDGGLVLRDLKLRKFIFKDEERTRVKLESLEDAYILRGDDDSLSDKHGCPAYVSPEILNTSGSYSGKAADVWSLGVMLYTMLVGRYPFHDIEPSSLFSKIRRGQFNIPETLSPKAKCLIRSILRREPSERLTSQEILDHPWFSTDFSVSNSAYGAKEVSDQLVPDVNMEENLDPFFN", "experiment": "cell-based", "conditions": "HFF, read-out: Luciferase activity (%)"}
{"smiles": "C[C@@H](O)[C@H]1C(=O)N2C(C(=O)OCOC(=O)C(C)(C)C)=C(SC3CN(C4=NCCS4)C3)[C@H](C)[C@H]12", "note": "[Tebipenem pivoxil]", "values": [{"measurement": "activity at 10 µM", "value": 100, "unit": "%"}]}
